Assay results reported in PubChem BioAssay AID638 (SRMLSC, 2007).
About 65 (5%) of roughly 1,300 compounds were called active.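 Rule for the calls: active = growth inhibition reaching a set limit at one or more tested doses; inactive = the rest.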 This is one part of the list. Potency and affinity values are given separately.

Experiment: growth inhibition of wild-type E. coli, dose response, BW25113 wild type, OD615 (AID 638)
Settings: at 100 µM (top of the series) unless noted
Method in brief: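 Material – E. coli BW25113 wild type · Medium – Kanamycin-supplemented LB broth · Doses – compound dilution series for dose-response · Incubation – 20 h compound exposure, 37 °C · Technique – optical density (absorbance) at 615 nm · Read-out basis – IC50 from 4-parameter logistic, bounds fixed 0–100% · Control set – chloramphenicol at 30 µM final as inhibition control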

Compound	growth inhibition
O=c1[nH]c(=O)n(C2CCCCCC2)c(O)c1C=NCc1ccc(F)cc1	inactive: -0.14%
CCOC(=O)c1csc(Nc2nc3ccc(F)cc3s2)n1	inactive: -3.01%
COc1ccc(-c2nc(-c3cccs3)c(-c3cccs3)[nH]2)cc1O	inactive: 1.9%
CCOC(=O)C1C(=O)C=C(c2ccc(OC)cc2)CC1c1ccco1 (stereo not given)	inactive: 1.71%
CC1Cc2ccccc2N1C(=O)Cn1c(=O)oc2cc(S(=O)(=O)NC3CCCC3)ccc21 (stereo not given)	inactive: -0.61%
COc1ccc(/C=N/n2c(SC)nnc2-c2ccccc2)cc1C	inactive: -3.03%
N#CC1=C(N)Oc2n[nH]c(-c3cccs3)c2C1c1ccsc1 (stereo not given)	inactive: 8.94%
Cc1nc2c(-c3ccccc3)c(C)[nH]n2c(=O)c1Cl	inactive: -13.3%
O=C(c1cc(C2CC2)on1)N1CCN(C(c2ccccc2)c2ccccc2)CC1	inactive: -2.11%
CCn1c(C(=O)N2CCC(Cc3ccccc3)CC2)cc2sccc21	inactive: -18.6%
Cc1cccc(N2CCN(C(=O)c3ccc(NS(=O)(=O)c4c(C)noc4C)cc3)CC2)c1C	inactive: 11.1%
O/N=C(\c1ccc(Cl)cc1)c1cc2ccccc2o1	inactive: 8.62%
CSCCOC(=O)C1=C(C)NC(=O)CC1c1ccccc1Cl (stereo not given)	inactive: 3.74%
Cc1ccc(-c2noc(CCC(=O)N3CCN(c4cccc(C(F)(F)F)c4)CC3)n2)cc1	inactive: 6.7%
C=CCOC(=O)C(C#N)c1nc2ccccc2nc1N1CCN(Cc2ccccc2)CC1 (stereo not given)	inactive: -7.11%
OC(COc1ccc(Cl)c2ccccc12)CN1CCN(c2ccccn2)CC1 (stereo not given)	inactive: 1.32%
O=C(c1ccc(COc2c(F)c(F)cc(F)c2F)o1)N1CCN(c2ccc(Cl)cc2)CC1	inactive: -1.68%
CC(C)COC(=O)NCCOC(=O)Nc1cccc(Cl)c1	inactive: 18.9%
Cc1cccnc1Nc1nc(-c2ccc(O)cc2O)cs1	inactive: 17.4%
Cc1cc(=O)oc2c1ccc1oc(/C(=N/O)c3ccccc3)c(C)c12	inactive: -1.42%
Cc1cc(N2CCN(C(c3ccccc3)c3ccccc3)CC2)n2ncnc2n1	inactive: 6.9%
CCc1cc2c(=O)n(Cc3ccco3)c(SCc3c(C)noc3C)nc2s1	inactive: -12.8%
CCOC(=O)c1c(C)oc2ccc(NS(=O)(=O)c3ccc4c5c(cccc35)C(=O)N4)cc12	inactive: 6.6%

5 entries drawn at random from those above, as already listed:
Compound	growth inhibition
O=c1[nH]c(=O)n(C2CCCCCC2)c(O)c1C=NCc1ccc(F)cc1	inactive: -0.14%
CCOC(=O)C1C(=O)C=C(c2ccc(OC)cc2)CC1c1ccco1 (stereo not given)	inactive: 1.71%
CCOC(=O)c1c(C)oc2ccc(NS(=O)(=O)c3ccc4c5c(cccc35)C(=O)N4)cc12	inactive: 6.6%
CCc1cc2c(=O)n(Cc3ccco3)c(SCc3c(C)noc3C)nc2s1	inactive: -12.8%
CC1Cc2ccccc2N1C(=O)Cn1c(=O)oc2cc(S(=O)(=O)NC3CCCC3)ccc21 (stereo not given)	inactive: -0.61%

Next part:

Compound	growth inhibition
N#Cc1c(NC(NC(=O)c2ccco2)C(=O)c2ccccc2)sc2c1CCCC2 (stereo not given)	inactive: 9.36%
Cc1ccccc1-c1nc(CN2CCC(C(=O)NCCC3=CCCCC3)CC2)c(C)o1	inactive: 7.04%
c1ccc2oc(SCc3nc4ccccc4s3)nc2c1	inactive: 7.38%
CCCn1c(=O)c(C(=O)Nc2nnc(C)s2)c(O)c2ccccc21	inactive: -8.85%
Cc1nn(Cc2ccccc2)c(C)c1C(=O)OCC(=O)c1cc(C)n(C2CC2)c1C	inactive: -2.91%
CCCN(CCC)S(=O)(=O)c1ccc(C(=O)Nc2nnc(-c3cccc(OC)c3)o2)cc1	inactive: -2.06%
CCOC(=O)N1CCN(c2nc(N(c3ccccc3)c3ccccc3)nc(-n3ccnc3)n2)CC1	inactive: -3.06%
COC(=O)CNS(=O)(=O)c1ccc(Cc2ccc(S(=O)(=O)NCC(=O)OC)cc2)cc1	inactive: 12.8%
O=C(CSc1nnc(Cc2ccccc2)n1Cc1ccco1)NC12CC3CC(CC(C3)C1)C2	inactive: 3.5%
CC(C)c1ccc(Nc2nc(NCc3ccco3)nc(N3CCOCC3)n2)cc1	inactive: -9.82%
CN(Cc1ccccc1)c1nc2c(c(=O)n(C)c(=O)n2C)n1CCCc1ccccc1	inactive: -5.76%
Cc1ccc(S(=O)(=O)Nc2cccc(-c3cn4ccsc4n3)c2)cc1	inactive: 5.41%
CC1CCN(c2nc3ccccc3nc2C(C#N)S(=O)(=O)c2ccccc2)CC1 (stereo not given)	inactive: -11.4%
CCOC(=O)c1cccc(NC(=O)Nc2cc(OC)ccc2OC)c1	inactive: -6.94%
N#Cc1nc(Cc2ccccc2)oc1NCCc1ccccc1	inactive: 12.8%
O=C(C1CCN(Cc2cc(Cl)ccc2O)CC1)N1CCN(Cc2ccccc2)CC1	inactive: 2.23%
Cc1onc(-c2ccccc2Cl)c1C(=O)Nc1sc2c(c1C#N)CCC2	inactive: -19.1%
Cc1ccc(SC/C(O)=C(\C#N)c2nc3ccccc3s2)cc1	inactive: -13.7%
CC(C)(C)C(=O)Cn1c(=N)n(Cc2ccccc2)c2ccccc21	inactive: 1.06%
CCOC(=O)c1ccc(Oc2nc(NC(C)(C)C)nc(N(C)C)n2)cc1	inactive: 7.25%
Cc1ccc(CN2CCSc3ccc(C(=O)N4CCN(c5ncccn5)CC4)cc32)cc1	inactive: -1.23%
CCOC(=O)N1CCN(C(=O)COc2ccc(S(=O)(=O)Nc3ccc(OCC)cc3)cc2)CC1	inactive: 3.01%
Cc1ccc(Cl)cc1N1CCN(C(=O)COc2ccc(S(=O)(=O)NC(C)C)cc2)CC1	inactive: -1.24%

Compound	growth inhibition
CCn1c(SCC(=O)OC2CCCCC2)nc2ccccc2c1=O	inactive: 2.48%
CCC(Sc1nnnn1-c1ccccc1)C(=O)Nc1nc2ccccc2s1 (stereo not given)	inactive: -8.57%
COC(=O)C1=C(N)Oc2cc(C)n(Cc3ccco3)c(=O)c2C1c1cccc(Cl)c1 (stereo not given)	inactive: -7.44%
CCc1nnc(NC(=O)c2cccc(C(=O)Nc3nnc(CC)s3)n2)s1	inactive: 9.58%
Fc1ccc(C(c2ccc(F)cc2)N2CCN(C/C=C/c3ccccc3)CC2)cc1	inactive: -4.52%
CCOC(=O)c1cn(CC)c2cc(N3CCCCC3)c(F)cc2c1=O	inactive: -6.06%
COCCn1nnnc1C(C(C)C)N(Cc1ccccc1)Cc1cc2cc(OC)ccc2[nH]c1=O (stereo not given)	inactive: -1.23%
CC(=O)Nc1cccc(NC(=O)CSc2ncc(-c3ccc(Cl)cc3)n2Cc2ccco2)c1	inactive: -0.91%
Cc1cc(N2CCN(c3ccccc3)CC2)nc(-n2nc(C)cc2C)n1	inactive: 6.96%
CCOC(=O)C1Cn2c(nc3c(c2=O)C(C)(CC)Cc2ccccc2-3)S1 (stereo not given)	inactive: 4.68%
CSc1nc(-c2ccccc2)nc(N2CCCC2)c1C(C)=O	inactive: 10.2%
CC1CCCCC1n1c(=S)[nH]c2ccccc2c1=O (stereo not given)	inactive: -0.57%
c1ccc(-c2oc3ncnc(NCCN4CCOCC4)c3c2-c2ccccc2)cc1	inactive: 5.59%
Cc1cccc(-c2noc(CN(C(=O)c3ccc(Br)o3)C(C)C)n2)c1	inactive: 10.5%
CC1CCCC(C)N1C(=O)CN1CCN(c2nc(-c3ccc(F)cc3)cs2)CC1 (stereo not given)	inactive: 9.82%
O=C(CSc1ncnc2c1oc1ccccc12)N1CCCc2ccccc21	inactive: 8.44%
Oc1c(C(c2ccco2)N2CCN(C(c3ccccc3)c3ccccc3)CC2)sc2ncnn12 (stereo not given)	inactive: -1.17%
Cc1nnc(NC(=O)c2ccc(S(=O)(=O)N(C)Cc3ccccc3)cc2)o1	inactive: 3.95%
COc1cccc(NC(=O)Nc2nnc(N3CCCCC3C)s2)c1 (stereo not given)	inactive: 3.87%
N#CC(C#N)=c1ccc2c(c1)N1C3=C(CCCC3)CC3CCCCC31N=2 (stereo not given)	inactive: -60.2%
c1ccc2c(c1)CCN(c1nc3cc4c(cc3s1)OCCO4)C2	inactive: -2.25%
CN1CCCN(C(=O)Cc2c(Cl)cccc2Cl)c2nc3ccccc3nc21	inactive: -8.97%
O=C(c1cccs1)N(Cc1nc2sc3c(c2c(=O)[nH]1)CCCC3)C1CCCC1	inactive: -3.89%

Compound	growth inhibition
COC(=O)c1cc(C(=O)CSc2nc(C)cc(C)n2)ccc1O	inactive: 5.02%
O=C(Nc1ccn(Cc2ccc(Cl)cc2)n1)c1ccc2c(c1)OCO2	inactive: 10.1%
CC(C)c1ccc(OCc2ccc(C(=O)N3CCN(c4ccccn4)CC3)cc2)cc1	inactive: 9.44%
Cc1ccc(C2(c3ccc(C)cc3)NC(=O)N(Cc3c(C)noc3C)C2=O)cc1	inactive: 2.9%
CCCOc1ccccc1C1CC(=O)Nc2cc3c(cc21)OCCO3 (stereo not given)	inactive: 9.22%
C=CCn1cc(C(=O)NCc2ccco2)c(=O)c2cc(S(=O)(=O)N3CCCCCC3)ccc21	inactive: -9.96%
CCSc1oc(-c2ccccc2)nc1S(=O)(=O)c1ccccc1	inactive: -4.91%
Cc1nn(-c2ccccc2)c(Cl)c1C(=O)Nc1nnc(C2CCCC2)s1	inactive: -8.57%
CCC(Oc1ccccc1)C(=O)Nc1nnc(C(F)(F)F)s1 (stereo not given)	inactive: -7.51%
COc1ccc(-c2[nH]c(-c3cccc(OC)c3)nc2SCC(=O)NCc2ccco2)cc1	inactive: -22%
CC(Oc1ccccc1Br)C(=O)N1CCc2ccccc21 (stereo not given)	inactive: 1.62%
CC(C)(C)c1ccc(Cn2nnc3c(=O)[nH]c(C4CCCN(C(=O)Cc5cccs5)C4)nc32)cc1 (stereo not given)	inactive: 4.62%
CCc1cccc(NC(=O)c2ccc(NS(=O)(=O)c3c(C)noc3C)cc2)c1	inactive: 3.02%
Cc1ccc2c(CC(=O)OCc3nc(N)nc(Nc4ccccc4C)n3)coc2c1	inactive: 1.56%
COc1ccc(C2(O)CC3CCC(C2)N3c2cc(C)nc(-c3ccccc3)n2)cc1 (stereo not given)	inactive: -2.16%
CCSC(C)CC1C/C(=N/O)c2c(CC)noc2C1 (stereo not given)	inactive: -3.72%
Clc1cccc(NCc2nnc(SCc3ccccc3)o2)c1	inactive: 5.61%
Cc1ccc(C(=O)N2CCN(c3cccc(Cl)c3)CC2)cc1C	inactive: 7.44%
CCn1c(=N)n(CC(=O)C23CC4CC(CC(C4)C2)C3)c2ccccc21	inactive: 0.66%
CCCc1nc2oc3cc(OC)ccc3c(=O)c2c(=O)n1Cc1ccco1	inactive: -1.23%
O=C(Nc1nc2n(n1)C(c1ccc(Cl)cc1)CC(c1ccc(Cl)cc1)N2)c1ccco1 (stereo not given)	active: 13%
